Laboratory results: PMC10229228, “Structural insights into a regulatory mechanism of FIR RRM1–FUSE interaction”
Results are given in words; binding and its absence hold for the method and conditions named.

Sequences of proteins named here, by UniProt entry; tags and fusion partners are left off. A change or cut given only in a name is not applied to a line headed by its entry. Residues count along the entry.
UniProt Q9UHX1, residues 118-310: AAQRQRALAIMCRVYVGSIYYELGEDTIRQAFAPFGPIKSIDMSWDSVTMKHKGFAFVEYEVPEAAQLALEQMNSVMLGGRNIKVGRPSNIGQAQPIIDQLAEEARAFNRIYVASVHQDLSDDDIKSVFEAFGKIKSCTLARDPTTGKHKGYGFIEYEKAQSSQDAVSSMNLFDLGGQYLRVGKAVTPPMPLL

Target: FUBP-interacting repressor (FIR) RRM1-2 (residues 101-293) (UniProt Q9UHX1)
Assay: crystal structure; FIR RRM1-2 mixed with 15-nt FUSE ssDNA at 1:2 (protein:ssDNA), complex purified by size exclusion, crystallised at 20°C in 25% PEG 3350, 0.2 M sodium acetate, 0.1 M Bis-Tris pH 5.5; space group P212121, two protein molecules in the asymmetric unit; 2.05 Å; both purified

FUBP-interacting repressor (FIR) RRM1-2 (residues 101-293) (from UniProt Q9UHX1-2 101-293) (domain or fragment)
binding: no binding
